Measurements taken from patent publication US9260484B2, “Small molecule composite surfaces as inhibitors of protein-protein interactions” (Ohio State Innovation Foundation, priority 2011, dated 2016).
For at least one compound, name, drawing or mass did not settle the structure. Numbered stars: 1 amine (or outer) side, 2 acyl side, 3 side chain; on linkers, the order of the positions; unused ones are H or OH. Bridge positions count the residues as written; N and C are the ends. Square brackets hold non-standard residues; d marks the D form. Peptide text beside a SMILES is read from it. dβ3h(hPhe) = O=C(C[C@@H](CCc1ccccc1)N[*:1])[*:2]; X1 = CC(C)(CO[*:2])C(=O)C(=O)[*:1]; d(β3hE) = N[C@H](CCC(=O)O)CC(=O)O; Pip = O=C(O)[C@@H]1CCCCN1

By UniProt entry, the sequences of proteins in these tests, tags left out.
UniProt P62942, whole entry: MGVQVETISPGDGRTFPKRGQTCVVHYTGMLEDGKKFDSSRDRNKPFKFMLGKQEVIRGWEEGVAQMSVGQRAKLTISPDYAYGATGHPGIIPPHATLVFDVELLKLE

Target: T1, FKBP (Homo sapiens, UniProt P62942)
T1 construct: 200 nM recombinant FKBP
Test: fluorescence polarization (FA) competition assay for binding to FKBP
Conditions: Table 2; converted from IC50 by Cheng-Prusoff equation
Experimental: To facilitate solid-phase synthesis, an invariant glutamine was added to the C-terminal side of the R^1 residue, for the purpose of backbone peptide cyclization and providing an anchor for attachment to the solid support. For this set of compounds, the dipeptide Ala-Ala was used as the effector domain. The rapalogs were tested for binding to FKBP by a fluorescence polarization competition assay^22,23. SLF^24, was labeled with the fluorescent dye fluorescein^23. Binding of the labeled ligand to FKBP increases its fluorescence anisotropy (FA) values. Addition of an unlabeled ligand to the reaction inhibits the binding of SLF to FKBP and therefore decreases the FA values. […] Subsequently, the IC50 values were converted into KI values based on the Cheng-Prusoff equation.
A previously reported synthetic ligand of FKBP^46 (SLF in FIG. 2), was labeled with the fluorescent dye fluorescein^20. Binding of the labeled ligand to FKBP increases its fluorescence anisotropy (FA) value.
The fluorescence polarization based competition assay was performed in a 384-well plate. […] After the addition of the rapalogs as the last component, the binding reactions were incubated for 1 h at room temperature to reach binding equilibrium. Anisotropy values were measured on a FlexStation 3 plate reader (Molecular Devices, Sunnyvale, Calif.).

Row | Compound | Ki
1 | C[C@@H]1NC(=O)[C@H](C)NC(=O)[C@H](CCC(N)=O)NC(=O)C[C@@H](CCC(=O)O)NC(=O)[C@@H]2CCCCN2C(=O)C(=O)C(C)(C)COC(=O)[C@@H](C)NC1=O [Compound 2d] ([Pip][d(β3hE)]QAA[dA]; linker N-C via X1) | 9 ± 1 µM
2 | C[C@H]1NC(=O)[C@H](CCC(N)=O)NC(=O)C[C@@H](CCc2ccccc2)NC(=O)[C@@H]2CCCCN2C(=O)C(=O)C(C)(C)COC(=O)[C@@H](C)NC(=O)[C@@H](C)NC(=O)[C@@H](C)NC1=O [Compound 2q] ([Pip][dβ3h(hPhe)]Q[dA][dA][dA][dA]; linker N-C via X1) | 0.4 ± 0.1 µM
